Measurements taken from paper PMC4201560.
No constants are given. Whether binding was seen depends on the method and setting. In cells and extracts the contact can be indirect. Some entries that bind do so weakly or less than the wild type. Where a sequence is shown, tags or fusion partners need not be part of it.

Protein sequences, listed by entry. Tags and fused reporters are not part of them.
UniProt O14063: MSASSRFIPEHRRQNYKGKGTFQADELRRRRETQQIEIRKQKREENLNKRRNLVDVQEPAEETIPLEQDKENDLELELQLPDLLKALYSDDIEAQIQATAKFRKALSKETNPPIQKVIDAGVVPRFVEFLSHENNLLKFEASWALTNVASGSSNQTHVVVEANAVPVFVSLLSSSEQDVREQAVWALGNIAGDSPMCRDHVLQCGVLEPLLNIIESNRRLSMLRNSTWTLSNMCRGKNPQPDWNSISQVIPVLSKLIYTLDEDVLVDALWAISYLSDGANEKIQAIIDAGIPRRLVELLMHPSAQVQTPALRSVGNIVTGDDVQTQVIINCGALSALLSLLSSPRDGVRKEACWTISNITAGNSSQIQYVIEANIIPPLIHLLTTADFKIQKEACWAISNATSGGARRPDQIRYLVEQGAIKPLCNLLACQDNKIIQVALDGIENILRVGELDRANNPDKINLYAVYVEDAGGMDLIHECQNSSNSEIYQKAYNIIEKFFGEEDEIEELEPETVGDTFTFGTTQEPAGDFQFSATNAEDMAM

Tests used:
Experiment in all cases: pull-down; TAP pull-down: total lysates of iron-starved (Dip 250 µM, 3 h) S. pombe php4Δ cells co-expressing GFP-Php4 and a TAP-tagged karyopherin or TAP alone; IgG-Sepharose 6 Fast-Flow beads, 30 to 60 min at 4°C, washed with lysis buffer; bound fraction blotted with anti-GFP, anti-IgG and anti-α-tubulin
Cut15-TAP (S. pombe) = Cut15-TAP (S. pombe) (UniProt O14063)
Imp1-TAP (S. pombe) = molecular target: T1, Imp1-TAP (S. pombe) (UniProt O94374)
T1 sequence: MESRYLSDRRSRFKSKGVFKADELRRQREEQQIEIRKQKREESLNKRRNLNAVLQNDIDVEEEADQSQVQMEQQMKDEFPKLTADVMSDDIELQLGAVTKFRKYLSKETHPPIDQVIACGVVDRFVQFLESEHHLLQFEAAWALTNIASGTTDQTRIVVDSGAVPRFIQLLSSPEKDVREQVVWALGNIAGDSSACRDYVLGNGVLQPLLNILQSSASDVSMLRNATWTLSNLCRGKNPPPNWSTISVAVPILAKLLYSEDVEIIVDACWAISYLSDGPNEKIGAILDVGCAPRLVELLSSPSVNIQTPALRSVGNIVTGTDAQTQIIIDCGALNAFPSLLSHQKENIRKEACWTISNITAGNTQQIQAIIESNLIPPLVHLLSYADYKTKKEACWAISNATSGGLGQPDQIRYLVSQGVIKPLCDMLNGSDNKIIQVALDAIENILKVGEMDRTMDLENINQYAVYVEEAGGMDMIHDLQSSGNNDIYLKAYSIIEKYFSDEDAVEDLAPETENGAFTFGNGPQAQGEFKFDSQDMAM

Sal3-TAP (S. pombe) = molecular target: T2, Sal3-TAP (S. pombe) (UniProt O74476)
T2 sequence: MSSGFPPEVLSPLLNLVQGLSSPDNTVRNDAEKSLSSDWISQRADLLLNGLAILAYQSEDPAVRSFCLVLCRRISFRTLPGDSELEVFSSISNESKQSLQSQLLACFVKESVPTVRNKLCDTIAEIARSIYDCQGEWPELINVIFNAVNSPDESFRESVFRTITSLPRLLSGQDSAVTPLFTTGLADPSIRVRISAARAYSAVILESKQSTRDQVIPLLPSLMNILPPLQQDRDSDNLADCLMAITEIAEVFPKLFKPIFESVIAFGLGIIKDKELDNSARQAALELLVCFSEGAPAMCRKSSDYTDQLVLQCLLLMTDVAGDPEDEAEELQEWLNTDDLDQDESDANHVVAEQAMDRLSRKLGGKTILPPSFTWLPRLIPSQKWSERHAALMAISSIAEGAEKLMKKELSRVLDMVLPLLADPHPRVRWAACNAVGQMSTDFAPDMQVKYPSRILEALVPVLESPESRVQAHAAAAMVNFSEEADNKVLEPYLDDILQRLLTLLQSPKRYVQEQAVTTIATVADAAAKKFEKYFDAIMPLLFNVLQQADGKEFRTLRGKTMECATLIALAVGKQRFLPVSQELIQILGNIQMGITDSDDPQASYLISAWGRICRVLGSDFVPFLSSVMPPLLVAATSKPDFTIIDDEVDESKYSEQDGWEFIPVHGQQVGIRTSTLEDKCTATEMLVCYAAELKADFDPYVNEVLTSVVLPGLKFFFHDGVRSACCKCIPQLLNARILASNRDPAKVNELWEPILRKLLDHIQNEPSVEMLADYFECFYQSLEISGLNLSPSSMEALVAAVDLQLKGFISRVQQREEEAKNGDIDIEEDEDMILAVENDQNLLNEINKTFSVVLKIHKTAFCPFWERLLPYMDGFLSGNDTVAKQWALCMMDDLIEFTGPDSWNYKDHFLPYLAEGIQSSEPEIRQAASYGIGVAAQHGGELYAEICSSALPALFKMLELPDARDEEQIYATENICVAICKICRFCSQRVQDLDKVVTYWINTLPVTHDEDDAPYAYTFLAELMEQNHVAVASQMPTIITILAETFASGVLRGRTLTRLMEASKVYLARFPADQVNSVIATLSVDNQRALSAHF

binding (Cut15-TAP (S. pombe)): binds
binding (Imp1-TAP (S. pombe)): binds
binding (Sal3-TAP (S. pombe)): binds
B1: GFP-Php4 (protein, UniProt O14318 1-295)
chain: MESSKSPSEVEKSSSASPAPQKPMIRVSKQWVVPPRPKPGRKPALDALGRRKAPIKPRPGPTSALSVEEAKFRVREKQYQDTIGKLQKENNELLEQLEMLQAQLKNSTLDSPKEVEVNSEVVKPDSATTENENRYVNQYNYPVEPPCAKNAVYTEIPIELDPHAFLGDSAKRIRVDSDSKDAKSVPSENGRIRVSMSPQNEINFTPENPAVMEKIRKRGVCNSVEGCLYSGSPKSVKRVRESEETKVYAQLLIDLHKSSKSAPMLKAGPSIAFKLPTMEPNFNDVRPVTSISSSS
